Among the data in publication PMC8173155 are binding values, retold here.

By UniProt entry, the sequences of proteins in these tests, tags left out. Residues count along the entry.
UniProt P11021, residues 19-654: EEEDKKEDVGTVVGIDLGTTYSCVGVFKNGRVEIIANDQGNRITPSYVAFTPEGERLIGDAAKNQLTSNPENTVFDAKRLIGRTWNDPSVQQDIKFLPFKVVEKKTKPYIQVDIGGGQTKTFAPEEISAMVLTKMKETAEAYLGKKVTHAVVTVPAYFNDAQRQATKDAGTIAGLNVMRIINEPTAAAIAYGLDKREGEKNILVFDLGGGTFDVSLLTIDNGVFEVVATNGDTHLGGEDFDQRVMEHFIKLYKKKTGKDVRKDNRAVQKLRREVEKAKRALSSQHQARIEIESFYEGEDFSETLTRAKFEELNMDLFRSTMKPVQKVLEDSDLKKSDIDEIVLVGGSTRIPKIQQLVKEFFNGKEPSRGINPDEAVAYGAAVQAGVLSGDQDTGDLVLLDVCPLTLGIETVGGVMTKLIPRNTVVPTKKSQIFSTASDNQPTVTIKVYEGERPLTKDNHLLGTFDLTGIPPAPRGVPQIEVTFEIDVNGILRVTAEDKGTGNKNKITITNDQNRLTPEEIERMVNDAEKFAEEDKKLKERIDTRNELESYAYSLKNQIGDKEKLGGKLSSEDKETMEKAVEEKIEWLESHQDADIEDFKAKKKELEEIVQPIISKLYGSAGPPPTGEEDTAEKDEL

Assay [1] deals with T1, osteoprotegerin (OPG) (human (endogenous in SUM149PT and SUM190PT)) (UniProt O00300).
T1 sequence: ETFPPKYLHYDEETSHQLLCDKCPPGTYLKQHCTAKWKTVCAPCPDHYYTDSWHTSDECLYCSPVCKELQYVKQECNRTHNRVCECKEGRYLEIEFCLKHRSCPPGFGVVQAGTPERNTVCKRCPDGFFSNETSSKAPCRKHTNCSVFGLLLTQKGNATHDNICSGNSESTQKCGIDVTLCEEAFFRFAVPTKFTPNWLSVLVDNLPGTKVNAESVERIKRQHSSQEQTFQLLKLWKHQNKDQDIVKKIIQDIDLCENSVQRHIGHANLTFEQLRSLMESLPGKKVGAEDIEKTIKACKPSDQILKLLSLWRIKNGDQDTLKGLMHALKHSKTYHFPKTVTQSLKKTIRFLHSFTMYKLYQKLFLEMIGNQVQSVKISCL
The assay can be described thus: proximity ligation; DuoLink PLA on fixed, permeabilized SUM149PT and SUM190PT cells; primary antibodies from different species against OPG and BiP/GRP78; red fluorescent probe.

Assay [2] concerns the target T1, osteoprotegerin (OPG) (human (endogenous in SUM149PT and SUM190PT)). Nature of the assay: co-IP; lysates of SUM149PT and SUM190PT cells; immunoprecipitation with anti-OPG antibody (anti-IgG antibody as control), Western blot with anti-BiP/GRP78 antibody. In general terms: Immunoblotting shows a protein as a band on a membrane.

Results are given in words; binding and its absence hold for the method and conditions named. In cells and extracts the contact can be indirect. Some binding calls cover weakened binding; strength is not graded here.

For the substance “GRP78/BiP (glucose-regulated protein/Binding immunoglobulin protein) (from UniProt P11021 19-654)”, the binding result in assay [1] and in assay [2] was “binds” in each case.
